Test results taken from the supplement of paper PMC10849652.
The other results are listed elsewhere or left out.

Sequences of proteins named here, by UniProt entry; tags and fusion partners are left off. A change or cut given only in a name is not applied to a line headed by its entry.
UniProt Q86X53: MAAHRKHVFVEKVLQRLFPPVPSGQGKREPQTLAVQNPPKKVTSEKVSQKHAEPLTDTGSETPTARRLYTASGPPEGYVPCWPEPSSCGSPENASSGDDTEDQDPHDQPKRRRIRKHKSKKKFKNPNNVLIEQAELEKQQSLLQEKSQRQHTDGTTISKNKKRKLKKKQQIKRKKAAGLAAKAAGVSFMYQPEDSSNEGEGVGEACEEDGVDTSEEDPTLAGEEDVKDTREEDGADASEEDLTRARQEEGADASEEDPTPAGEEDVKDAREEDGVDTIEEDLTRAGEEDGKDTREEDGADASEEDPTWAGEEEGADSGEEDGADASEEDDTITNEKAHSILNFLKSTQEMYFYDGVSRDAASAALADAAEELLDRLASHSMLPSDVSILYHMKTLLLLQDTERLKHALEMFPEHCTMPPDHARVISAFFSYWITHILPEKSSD
UniProt Q5T6L9: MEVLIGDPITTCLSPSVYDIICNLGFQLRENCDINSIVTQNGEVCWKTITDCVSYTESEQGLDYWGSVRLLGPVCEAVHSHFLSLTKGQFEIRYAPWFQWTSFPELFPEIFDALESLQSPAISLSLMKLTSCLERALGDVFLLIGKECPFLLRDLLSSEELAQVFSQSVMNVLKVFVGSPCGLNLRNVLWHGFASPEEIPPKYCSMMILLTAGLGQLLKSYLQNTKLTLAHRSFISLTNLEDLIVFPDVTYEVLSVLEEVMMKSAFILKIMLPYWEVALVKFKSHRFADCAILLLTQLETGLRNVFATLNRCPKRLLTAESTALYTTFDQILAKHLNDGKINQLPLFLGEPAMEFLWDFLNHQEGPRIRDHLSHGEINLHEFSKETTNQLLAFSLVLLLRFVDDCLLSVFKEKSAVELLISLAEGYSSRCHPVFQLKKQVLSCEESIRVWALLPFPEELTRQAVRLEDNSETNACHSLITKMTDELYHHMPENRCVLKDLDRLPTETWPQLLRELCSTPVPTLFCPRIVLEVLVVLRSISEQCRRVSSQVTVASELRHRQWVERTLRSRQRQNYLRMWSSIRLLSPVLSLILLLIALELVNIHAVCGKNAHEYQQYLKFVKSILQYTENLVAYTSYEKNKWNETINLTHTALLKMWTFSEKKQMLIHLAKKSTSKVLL
UniProt Q9H098: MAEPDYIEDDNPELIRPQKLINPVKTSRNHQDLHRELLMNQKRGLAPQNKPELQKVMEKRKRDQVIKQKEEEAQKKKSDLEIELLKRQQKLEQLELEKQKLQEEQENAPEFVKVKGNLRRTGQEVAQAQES
UniProt P07992: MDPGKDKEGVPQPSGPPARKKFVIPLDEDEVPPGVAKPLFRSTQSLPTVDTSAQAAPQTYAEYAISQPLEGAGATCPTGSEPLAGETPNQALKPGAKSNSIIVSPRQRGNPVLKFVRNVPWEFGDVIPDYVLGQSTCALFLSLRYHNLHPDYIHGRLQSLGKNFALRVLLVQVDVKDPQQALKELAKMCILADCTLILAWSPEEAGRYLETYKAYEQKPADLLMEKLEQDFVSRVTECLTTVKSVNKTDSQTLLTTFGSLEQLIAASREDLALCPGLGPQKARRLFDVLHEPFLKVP
UniProt Q9H501: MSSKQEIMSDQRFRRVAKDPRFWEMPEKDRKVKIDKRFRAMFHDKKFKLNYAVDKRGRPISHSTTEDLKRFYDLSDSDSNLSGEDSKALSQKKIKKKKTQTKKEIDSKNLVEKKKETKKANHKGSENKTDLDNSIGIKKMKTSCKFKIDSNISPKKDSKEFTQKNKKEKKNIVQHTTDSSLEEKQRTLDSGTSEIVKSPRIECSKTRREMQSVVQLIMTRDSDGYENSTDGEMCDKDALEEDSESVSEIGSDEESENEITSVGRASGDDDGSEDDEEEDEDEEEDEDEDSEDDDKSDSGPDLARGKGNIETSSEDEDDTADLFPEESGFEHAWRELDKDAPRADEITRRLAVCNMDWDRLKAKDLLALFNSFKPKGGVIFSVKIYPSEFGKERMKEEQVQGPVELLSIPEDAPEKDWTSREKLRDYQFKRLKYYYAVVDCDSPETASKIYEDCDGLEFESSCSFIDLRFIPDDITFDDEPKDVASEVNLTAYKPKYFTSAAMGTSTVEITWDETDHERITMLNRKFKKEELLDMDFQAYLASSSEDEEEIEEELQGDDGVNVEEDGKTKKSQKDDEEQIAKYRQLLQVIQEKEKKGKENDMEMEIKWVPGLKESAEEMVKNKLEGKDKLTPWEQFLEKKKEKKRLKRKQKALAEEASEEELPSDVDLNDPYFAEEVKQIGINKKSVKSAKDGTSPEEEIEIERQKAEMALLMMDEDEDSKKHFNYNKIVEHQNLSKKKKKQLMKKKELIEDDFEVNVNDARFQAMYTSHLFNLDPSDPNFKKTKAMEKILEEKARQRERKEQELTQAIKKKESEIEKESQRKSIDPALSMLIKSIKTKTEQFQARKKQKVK
UniProt Q8TE68: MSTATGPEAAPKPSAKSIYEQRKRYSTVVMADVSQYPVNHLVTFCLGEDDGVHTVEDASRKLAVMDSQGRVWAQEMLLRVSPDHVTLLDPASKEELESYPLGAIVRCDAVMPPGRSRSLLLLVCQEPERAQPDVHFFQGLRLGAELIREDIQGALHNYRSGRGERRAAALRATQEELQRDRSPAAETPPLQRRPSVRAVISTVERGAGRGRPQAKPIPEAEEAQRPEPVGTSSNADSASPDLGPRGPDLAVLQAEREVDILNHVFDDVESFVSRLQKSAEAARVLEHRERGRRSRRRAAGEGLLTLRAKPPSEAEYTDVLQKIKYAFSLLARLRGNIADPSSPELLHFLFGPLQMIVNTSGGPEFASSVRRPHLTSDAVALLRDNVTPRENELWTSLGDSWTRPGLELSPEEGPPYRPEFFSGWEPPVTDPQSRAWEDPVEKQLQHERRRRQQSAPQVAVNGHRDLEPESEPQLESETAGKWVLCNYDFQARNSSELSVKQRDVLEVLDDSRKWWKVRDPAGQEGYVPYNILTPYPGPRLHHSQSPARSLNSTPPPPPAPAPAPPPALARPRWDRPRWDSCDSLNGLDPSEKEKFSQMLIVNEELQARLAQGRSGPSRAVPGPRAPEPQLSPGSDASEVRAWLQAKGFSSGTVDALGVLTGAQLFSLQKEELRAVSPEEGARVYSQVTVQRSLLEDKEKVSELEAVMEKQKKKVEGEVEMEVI
UniProt Q9Y6I3: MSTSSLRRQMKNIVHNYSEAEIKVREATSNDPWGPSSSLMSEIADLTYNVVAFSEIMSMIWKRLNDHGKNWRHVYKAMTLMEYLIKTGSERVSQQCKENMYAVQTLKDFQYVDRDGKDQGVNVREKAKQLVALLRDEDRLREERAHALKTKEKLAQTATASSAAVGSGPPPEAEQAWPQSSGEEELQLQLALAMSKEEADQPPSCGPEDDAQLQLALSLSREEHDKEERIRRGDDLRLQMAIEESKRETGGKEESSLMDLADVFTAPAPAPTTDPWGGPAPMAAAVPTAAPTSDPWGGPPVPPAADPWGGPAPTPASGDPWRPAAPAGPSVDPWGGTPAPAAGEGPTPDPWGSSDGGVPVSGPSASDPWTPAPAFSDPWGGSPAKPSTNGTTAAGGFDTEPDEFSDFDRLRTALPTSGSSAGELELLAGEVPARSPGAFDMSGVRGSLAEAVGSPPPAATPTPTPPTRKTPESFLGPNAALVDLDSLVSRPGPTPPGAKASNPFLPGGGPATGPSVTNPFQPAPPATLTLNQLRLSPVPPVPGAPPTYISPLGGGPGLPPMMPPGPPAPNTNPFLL
UniProt Q8IWE2: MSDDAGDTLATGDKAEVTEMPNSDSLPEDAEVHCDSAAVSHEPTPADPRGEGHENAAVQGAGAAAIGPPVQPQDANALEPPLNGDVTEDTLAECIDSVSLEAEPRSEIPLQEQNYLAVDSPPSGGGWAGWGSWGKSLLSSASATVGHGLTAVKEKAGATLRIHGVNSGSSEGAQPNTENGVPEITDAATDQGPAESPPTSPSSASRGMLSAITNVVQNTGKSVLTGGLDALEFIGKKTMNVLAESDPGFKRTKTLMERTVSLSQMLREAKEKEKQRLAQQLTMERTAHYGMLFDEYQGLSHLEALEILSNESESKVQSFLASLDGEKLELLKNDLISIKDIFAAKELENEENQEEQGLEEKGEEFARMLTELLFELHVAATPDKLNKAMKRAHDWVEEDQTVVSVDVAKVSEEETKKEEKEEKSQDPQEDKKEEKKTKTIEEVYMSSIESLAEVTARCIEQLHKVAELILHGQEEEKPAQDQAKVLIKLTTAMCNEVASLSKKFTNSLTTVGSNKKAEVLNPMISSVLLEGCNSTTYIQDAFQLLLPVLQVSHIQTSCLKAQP
UniProt Q9HCM4: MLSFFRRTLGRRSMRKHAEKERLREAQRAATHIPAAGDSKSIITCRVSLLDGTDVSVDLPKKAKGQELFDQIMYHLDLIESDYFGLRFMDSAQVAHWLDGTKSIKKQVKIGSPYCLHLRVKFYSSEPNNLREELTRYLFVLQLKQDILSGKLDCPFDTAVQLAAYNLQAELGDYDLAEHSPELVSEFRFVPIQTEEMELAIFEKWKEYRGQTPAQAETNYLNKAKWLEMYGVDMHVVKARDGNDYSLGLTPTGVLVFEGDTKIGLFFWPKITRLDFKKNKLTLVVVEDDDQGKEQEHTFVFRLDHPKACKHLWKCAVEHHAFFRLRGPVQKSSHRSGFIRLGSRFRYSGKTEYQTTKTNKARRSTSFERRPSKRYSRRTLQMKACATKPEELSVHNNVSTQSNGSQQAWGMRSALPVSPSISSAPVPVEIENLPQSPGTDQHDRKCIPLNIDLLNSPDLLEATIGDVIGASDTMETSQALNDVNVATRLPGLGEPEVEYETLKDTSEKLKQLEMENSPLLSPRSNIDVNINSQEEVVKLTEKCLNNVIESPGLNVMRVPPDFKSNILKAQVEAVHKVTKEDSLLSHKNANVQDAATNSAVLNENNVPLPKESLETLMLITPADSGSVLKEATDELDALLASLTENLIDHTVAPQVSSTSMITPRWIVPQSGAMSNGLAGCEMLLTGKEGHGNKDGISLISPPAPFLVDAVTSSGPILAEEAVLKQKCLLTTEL
UniProt P54760: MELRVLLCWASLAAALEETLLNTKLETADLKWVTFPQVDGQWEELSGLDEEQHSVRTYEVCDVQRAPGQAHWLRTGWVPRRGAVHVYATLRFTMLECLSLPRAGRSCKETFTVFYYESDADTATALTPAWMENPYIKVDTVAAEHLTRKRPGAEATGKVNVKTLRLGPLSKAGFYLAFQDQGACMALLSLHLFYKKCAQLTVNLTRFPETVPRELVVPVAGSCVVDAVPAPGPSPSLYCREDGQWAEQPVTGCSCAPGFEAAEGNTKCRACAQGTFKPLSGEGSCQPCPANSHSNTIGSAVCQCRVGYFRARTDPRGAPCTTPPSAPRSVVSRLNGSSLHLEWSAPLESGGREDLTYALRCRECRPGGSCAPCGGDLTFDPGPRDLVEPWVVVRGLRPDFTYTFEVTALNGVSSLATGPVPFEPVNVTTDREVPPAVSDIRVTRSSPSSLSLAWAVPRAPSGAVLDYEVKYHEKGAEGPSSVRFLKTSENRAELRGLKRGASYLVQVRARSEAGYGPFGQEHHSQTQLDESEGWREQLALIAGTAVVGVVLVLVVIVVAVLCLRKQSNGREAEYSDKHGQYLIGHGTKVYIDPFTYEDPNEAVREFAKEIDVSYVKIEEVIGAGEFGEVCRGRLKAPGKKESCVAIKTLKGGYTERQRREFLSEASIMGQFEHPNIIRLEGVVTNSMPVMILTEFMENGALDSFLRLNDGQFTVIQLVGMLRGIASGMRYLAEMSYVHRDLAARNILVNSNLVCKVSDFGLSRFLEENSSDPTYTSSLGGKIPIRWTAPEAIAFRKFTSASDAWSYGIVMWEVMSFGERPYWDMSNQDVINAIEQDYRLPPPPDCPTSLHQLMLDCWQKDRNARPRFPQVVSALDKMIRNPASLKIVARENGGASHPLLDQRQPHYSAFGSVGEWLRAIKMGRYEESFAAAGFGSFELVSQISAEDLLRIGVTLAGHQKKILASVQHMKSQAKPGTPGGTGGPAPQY
UniProt Q99504: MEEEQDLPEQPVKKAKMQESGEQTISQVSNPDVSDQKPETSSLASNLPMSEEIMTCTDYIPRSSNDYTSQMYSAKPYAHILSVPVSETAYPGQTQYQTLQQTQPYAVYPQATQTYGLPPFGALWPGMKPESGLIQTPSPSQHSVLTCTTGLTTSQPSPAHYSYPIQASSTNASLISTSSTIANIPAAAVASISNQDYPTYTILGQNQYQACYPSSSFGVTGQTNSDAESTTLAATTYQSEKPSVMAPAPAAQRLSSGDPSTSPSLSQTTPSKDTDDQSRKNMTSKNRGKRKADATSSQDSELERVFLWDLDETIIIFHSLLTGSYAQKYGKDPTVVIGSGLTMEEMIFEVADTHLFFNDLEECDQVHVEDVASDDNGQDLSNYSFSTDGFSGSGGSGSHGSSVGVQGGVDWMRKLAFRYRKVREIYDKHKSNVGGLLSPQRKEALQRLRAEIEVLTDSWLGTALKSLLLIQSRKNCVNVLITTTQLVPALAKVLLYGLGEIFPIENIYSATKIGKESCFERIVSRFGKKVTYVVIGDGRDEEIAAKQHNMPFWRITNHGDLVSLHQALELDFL

Tests used:
Assay in all cases: log2 fold change, soluble protein after heating vs DMSO (PISA); higher = thermal stabilisation; K562 cells, 10 uM, 30 min; active = over 0.2 and 3.5 SD of the protein, either way, in both replicates (recomputed)
epoxomicin = compound: CC[C@H](C)[C@@H](C(=O)N[C@@H]([C@@H](C)O)C(=O)N[C@@H](CC(C)C)C(=O)[C@]1(CO1)C)NC(=O)[C@H]([C@@H](C)CC)N(C)C(=O)C [epoxomicin]
Outline: (§1)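 K562 cells at 2×10^6 cells/mL were exposed to 10 μM compound for 30 min, then aliquots were heated for 3 min across 48°C-58°C, pooled, and extracted in PBS containing 0.5% NP-40 at 4°C. The supernatant after 21,000xg for 90 min was taken as soluble protein and measured by TMTpro 16plex LC-MS/MS with channel sums equalised. Thermal stability is reported relative to control samples, with values from duplicates. Fold changes are given on a log2 scale.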

[1] = compound: CCn1c(C(=O)N(C2CC2)C2CC2)cc2c3c(ncn3C)c(Nc3cc(C)n(C)n3)nc21
Outline: as §1

[2] = compound: CCn1cc(-c2ccnc3[nH]c(-c4cccc(CN(C)C)c4)cc23)c(-c2ccc(NC(=O)N(C)C)cc2)n1
Outline: as §1

[3] = compound: CN(C)CC(=O)Nc1ccc2[nH]c(=O)c3ccccc3c2c1
Outline: as §1

[4] = compound: CN1CCC(CNc2ccc3ncc(-c4cccc(OC(F)(F)F)c4)n3n2)CC1
Outline: as §1

sotrastaurin = compound: CN1CCN(c2nc(C3=C(c4c[nH]c5ccccc45)C(=O)NC3=O)c3ccccc3n2)CC1 [sotrastaurin]
Outline: as §1

alvocidib = compound: CN1CC[C@H](c2c(O)cc(O)c3c(=O)cc(-c4ccccc4Cl)oc23)[C@H](O)C1 [alvocidib]
Outline: as §1

Tubastatin A = compound: CN1CCc2c(c3ccccc3n2Cc2ccc(C(=O)NO)cc2)C1 [Tubastatin A]
Outline: as §1

[5] = compound: CNC(=O)C1=CC=CC=C1NC2=NC(=NC=C2Cl)NC3=C(C=C(C=C3)N4CCOCC4)OC
Outline: as §1

defactinib = compound: CNC(=O)c1ccc(Nc2ncc(C(F)(F)F)c(NCc3nccnc3N(C)S(C)(=O)=O)n2)cc1 [defactinib]
Outline: as §1

[6] = compound: COC(=O)[C@H](CCSC)NC(=O)C1=C(C=C(C=C1)NC[C@H](CS)N)C2=CC=CC=C2
Outline: as §1

volasertib = compound: CC[C@@H]1C(=O)N(C)c2cnc(Nc3ccc(C(=O)N[C@H]4CC[C@H](N5CCN(CC6CC6)CC5)CC4)cc3OC)nc2N1C(C)C [volasertib]
Outline: as §1

[7] = compound: CN1C2=C(C3=C1C(=O)N(N=C3)CC4=CC(=CC=C4)N)SC(=C2)S(=O)C
Outline: as §1

saracatinib = compound: CN1CCN(CCOc2cc(OC3CCOCC3)c3c(Nc4c(Cl)ccc5c4OCO5)ncnc3c2)CC1 [saracatinib]
Outline: as §1

[8] = compound: CNc1nc(-c2ccc3c(N)n[nH]c3c2)cc(N2C[C@@H](C(=O)NC3CCCCC3)CC[C@H]2C)n1
Outline: as §1

rosiglitazone = compound: CN(CCOC1=CC=C(C=C1)C[C@H]2C(=O)NC(=O)S2)C3=CC=CC=N3 (racemic) [rosiglitazone]
Outline: as §1

[9] = compound: CC[C@H](C)N1C=C(C2=C(C=C(C=C21)C3=CN=C(C=C3)N4CCNCC4)C(=O)NCC5=C(C=C(NC5=O)C)C)C
Outline: as §1

Measured: log2 fold change

FAM204A (UniProt Q9H8W3)
inactive: epoxomicin -0.091 | [1] -0.011 | [2] 0.18 | [3] -0.023 | [4] 0.223 | sotrastaurin -0.081 | alvocidib 0.14 | Tubastatin A 0.186 | [5] 0.16 | defactinib 0.281 | [6] 0.203

FAM171A2 (UniProt A8MVW0)
inactive: [1] 0.103 | [2] 0.089 | [4] 0.106 | [5] 0.011

FAM110A (UniProt Q9BQ89)
inactive: epoxomicin 0.533 | [2] 0.175 | [4] -0.46

EPS15L1 (UniProt M0QY01)
inactive: epoxomicin -0.093 | [3] -0.029 | sotrastaurin 0.002 | defactinib 0.144 | [6] 0.048

FAM102B (UniProt Q5T8I3)
inactive: volasertib -0.059 | epoxomicin 0.066 | [3] -0.038 | defactinib -0.172 | [6] 0.083

ERI1 (UniProt Q8IV48)
inactive: epoxomicin -0.027 | [2] -0.016 | [3] -0.128 | [7] 0.24 | [4] 0.163 | saracatinib -0.16 | alvocidib 0.181 | Tubastatin A 0.209 | defactinib 0.296 | [8] 0.194 | [6] -0.06

ERICH1 (UniProt Q86X53)
inactive: volasertib 0.2 | Tubastatin A 0.128

F2R (UniProt P25116)
inactive: volasertib -0.171 | [2] 0.011 | [3] -0.071 | [4] -0.487 | alvocidib 0.029 | Tubastatin A -0.118 | defactinib 0.117 | [6] -0.319

ERMARD (UniProt Q5T6L9)
inactive: alvocidib -0.018

EVI2B isoform 2 (UniProt P34910)
inactive: [3] 0.012 | defactinib -0.04 | [6] -0.05

EVI5 isoform 2 (UniProt O60447)
inactive: volasertib -0.651 | [1] 0.208 | [2] -0.066 | [3] 0.059 | [7] 0.073 | [4] -0.244 | saracatinib -0.036 | alvocidib 0.108 | Tubastatin A 0.4 | [5] -0.111 | defactinib 0.014 | [8] 0.103 | [6] -0.016

FAM107B isoform 2 (UniProt Q9H098)
inactive: epoxomicin 0.033 | [2] -0.023 | [3] 0.007 | [7] 0.051 | [4] -0.05 | saracatinib 0.092 | defactinib 0.016 | [8] 0.013 | [6] 0.071

ERCC1 isoform 3 (UniProt P07992)
inactive: volasertib -0.147 | [7] 0.006 | saracatinib 0.104 | sotrastaurin 0.05 | alvocidib 0.351 | [8] -0.028

ERF (UniProt P50548)
inactive: epoxomicin 0.068 | [2] -0.052 | [4] 0.319 | sotrastaurin -0.058 | Tubastatin A 0.377 | [5] 0.069

FADS2 (UniProt O95864)
inactive: [1] 0.159 | [2] -0.295 | [4] 0.038 | [5] 0.242

F13B (UniProt P05160)
inactive: [3] -0.127 | alvocidib -0.067 | Tubastatin A -0.123 | defactinib 0.081 | [6] 0.275

ESF1 (UniProt Q9H501)
inactive: [2] 0.056 | rosiglitazone 0.332 | [7] 0.25 | [4] 0.122 | saracatinib 0.229 | sotrastaurin -0.017 | [8] -0.03

EZH2 isoform 2 (UniProt Q15910)
inactive: volasertib -0.259 | epoxomicin 0.131 | [3] 0.022 | [7] 0.155 | saracatinib -0.043 | sotrastaurin 0.001 | Tubastatin A 0.119 | [5] 0.011 | defactinib -0.207 | [8] 0.217 | [6] -0.302

EPS8L1 (UniProt Q8TE68)
inactive: epoxomicin 0.035 | rosiglitazone -0.066 | [7] 0.267 | saracatinib 0.129 | alvocidib 0.159 | [8] -0.111

FAM135A (UniProt Q9P2D6)
inactive: [9] -0.068 | epoxomicin -0.088 | [3] 0.079 | sotrastaurin -0.192 | [5] 0.004 | defactinib -0.131 | [6] 0.003

FAM174A (UniProt Q8TBP5)
inactive: [3] 0.051 | Tubastatin A 0.104 | defactinib -0.028 | [6] -0.132

FAM171A1 (UniProt Q5VUB5)
inactive: volasertib -0.026 | epoxomicin 0.033 | [1] -0.087 | [2] 0.128 | [3] -0.099 | [4] 0.155 | [5] -0.066 | defactinib -0.063 | [6] 0.015

EPN1 isoform 3 (UniProt Q9Y6I3)
inactive: rosiglitazone 0.062 | [7] -0.016 | saracatinib -0.304 | [8] 0.18

FAM114A1 (UniProt Q8IWE2)
inactive: epoxomicin -0.049 | [1] -0.105 | [2] -0.217 | [7] 0.036 | [4] -0.069 | saracatinib 0.086 | Tubastatin A 0.134 | [5] 0.094 | [8] -0.002

F2RL3 (UniProt Q96RI0)
inactive: volasertib 0.076 | [3] 0.012 | [7] -0.002 | saracatinib 0.04 | Tubastatin A 0.082 | [5] -0.051 | defactinib 0.009 | [8] 0.005 | [6] 0.008

EPB41L5 (UniProt Q9HCM4)
inactive: epoxomicin 0.02 | [1] 0.076 | [5] -0.059

EPHB4 (UniProt P54760)
inactive: volasertib -0.302 | sotrastaurin -0.057

Quoted from the entries so far (five entries):
FAM171A1 (UniProt Q5VUB5)
inactive: volasertib -0.026 | epoxomicin 0.033 | [1] -0.087 | [2] 0.128 | [3] -0.099 | [4] 0.155 | [5] -0.066 | defactinib -0.063 | [6] 0.015

EPN1 isoform 3 (UniProt Q9Y6I3)
inactive: rosiglitazone 0.062 | [7] -0.016 | saracatinib -0.304 | [8] 0.18

FAM114A1 (UniProt Q8IWE2)
inactive: epoxomicin -0.049 | [1] -0.105 | [2] -0.217 | [7] 0.036 | [4] -0.069 | saracatinib 0.086 | Tubastatin A 0.134 | [5] 0.094 | [8] -0.002

F2RL3 (UniProt Q96RI0)
inactive: volasertib 0.076 | [3] 0.012 | [7] -0.002 | saracatinib 0.04 | Tubastatin A 0.082 | [5] -0.051 | defactinib 0.009 | [8] 0.005 | [6] 0.008

EPB41L5 (UniProt Q9HCM4)
inactive: epoxomicin 0.02 | [1] 0.076 | [5] -0.059

Later entries

EPHX2 (UniProt E5RI53)
inactive: epoxomicin -0.199

FADS1 (UniProt F5GYH4)
inactive: [3] 0.026 | Tubastatin A 0.123 | defactinib 0.06 | [6] 0.123

EYA3 (UniProt Q99504)
inactive: [2] 0.147 | [3] 0.075 | [4] 0.046 | alvocidib -0.077 | Tubastatin A 0.231 | defactinib 0.079 | [6] 0.106
